Results are given in words; binding and its absence hold for the method and conditions named. Binding calls can cover weak binding; strength is not graded here.
Columns and labels:
monkey IL-36R (monkey) [1] = assay: flow cytometry on CHO-K1 cells expressing monkey IL-36R
monkey IL-36R (monkey) [2] = assay: flow cytometry on CHO-K1 cells expressing monkey IL-36R (CHO-K1-cyIL-36R), Median FL2

binding (monkey IL-36R (monkey) [1]): binds
binding (monkey IL-36R (monkey) [2]): binds
B1: humanized anti-IL-36R antibody 900527 (antibody, V domains shown)
VH: QVQLVQSGAEVKKPGASVKVSCKASGYTFTSSWMHWAKQAPGQGLEWIGEIHPNSAKTNYNQKFQGRVTMTRDTSISTAYMELSRLRSDDTAVYYCARVDYGKPWFAYWGQGTLVTVSS
VL: QIVLTQSPGTLSLSPGERATLSCRASSSVSSSYLHWYQQKPGQAPRLWIYSTSSRATGIPDRFSGSGSGTDFTLTISRLEPEDFATYYCQQFQSSPLTFGQGTKLEIK
